Record: PubChem BioAssay AID1259308 (NCATS, 2017)
Test: 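Genes whose loss raises luciferase production in HEK293 cells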 (primary screen). Cells: human HEK293 embryonic kidney cells stably expressing firefly luciferase (HEK-CMV-Luc2-Hygro). Reagent: single siRNA against human genes, 0.8 pmol siRNA per well. Time to read-out: 72 h. Detection: 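Reporter luminescence and viable-cell signal on separate replicate plates, given as percent of non-targeting control and median/MAD z-scores, plus per-cell luciferase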. Scale: total luciferase, z-score and total luciferase, % of control: higher = more reporter protein produced. Hit rule: 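Active when the median/MAD z-score for overall luciferase is greater than 3; a gene was taken forward for validation with new siRNAs if at least two of its three siRNAs passed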. Meaning of the calls: active = raised luciferase; inactive = no rise.
In all, the deposit lists about 59,000 reagents; below is a part drawn at random. In the full data, about 1,510 (2.6%) got an active call. 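Calls use total luciferase alone and ignore viability, so some active siRNAs may act by altering cell number.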 Further read-outs or replicates are left out here.

target | PubChem SID | total luciferase, z-score | total luciferase, % of control | outcome
LRRC14 (GeneID 9684) | SID160722797 | 0.204 | 85.9 | inactive
LRRC14 (GeneID 9684) | SID160722798 | -0.58 | 70.4 | inactive
LRRC14 (GeneID 9684) | SID160735245 | 1.17 | 105 | inactive
ARRDC2 (GeneID 27106) | SID160738378 | -0.469 | 72.6 | inactive
ARRDC2 (GeneID 27106) | SID160738379 | -0.66 | 68.8 | inactive
ARRDC2 (GeneID 27106) | SID160738380 | 0.0446 | 82.8 | inactive
OLFML3 (GeneID 56944) | SID160745357 | 0.345 | 88.7 | inactive
OLFML3 (GeneID 56944) | SID160745358 | -0.91 | 63.8 | inactive
OLFML3 (GeneID 56944) | SID160745359 | 0.503 | 91.9 | inactive
CEACAM19 (GeneID 56971) | SID160745419 | 0.621 | 94.2 | inactive
CEACAM19 (GeneID 56971) | SID160745420 | 1.49 | 112 | inactive
CEACAM19 (GeneID 56971) | SID160745421 | 0.263 | 87.1 | inactive
ITGB2 (GeneID 3689) | SID160775999 | -0.0848 | 80.2 | inactive
ITGB2 (GeneID 3689) | SID160776000 | 0.155 | 85 | inactive
ITGB2 (GeneID 3689) | SID160776001 | -0.173 | 78.4 | inactive
GNPDA1 (GeneID 10007) | SID160753287 | 0.304 | 87.9 | inactive
GNPDA1 (GeneID 10007) | SID160753398 | -2.43 | 33.5 | inactive
GNPDA1 (GeneID 10007) | SID160753504 | 0.687 | 95.6 | inactive
AASDHPPT (GeneID 60496) | SID160747116 | -0.0185 | 81.5 | inactive
AASDHPPT (GeneID 60496) | SID160747117 | -1.17 | 58.6 | inactive
AASDHPPT (GeneID 60496) | SID160747118 | -0.391 | 74.1 | inactive
RAB2B (GeneID 84932) | SID160752970 | -0.264 | 76.6 | inactive
RAB2B (GeneID 84932) | SID160752971 | 1.15 | 105 | inactive
RAB2B (GeneID 84932) | SID160752973 | 0.132 | 84.5 | inactive
RPL26L1 (GeneID 51121) | SID160733488 | -2.25 | 37.2 | inactive
RPL26L1 (GeneID 51121) | SID160740113 | -1.06 | 60.8 | inactive
RPL26L1 (GeneID 51121) | SID160740114 | 0.699 | 95.8 | inactive
AXL (GeneID 558) | SID160722595 | -0.779 | 66.4 | inactive
AXL (GeneID 558) | SID160722606 | -0.218 | 77.6 | inactive
AXL (GeneID 558) | SID160722615 | -0.292 | 76.1 | inactive
ELL3 (GeneID 80237) | SID160734985 | 0.108 | 84 | inactive
ELL3 (GeneID 80237) | SID160750276 | -1.34 | 55.3 | inactive
ELL3 (GeneID 80237) | SID160750277 | 4.23 | 166 | active
ABTB1 (GeneID 80325) | SID160750391 | -0.255 | 76.8 | inactive
ABTB1 (GeneID 80325) | SID160750392 | 0.0675 | 83.2 | inactive
ABTB1 (GeneID 80325) | SID160750393 | 0.457 | 91 | inactive
IFIT1 (GeneID 3434) | SID160775566 | -1.28 | 56.4 | inactive
IFIT1 (GeneID 3434) | SID160775567 | -0.281 | 76.3 | inactive
IFIT1 (GeneID 3434) | SID160775568 | -0.179 | 78.3 | inactive
ANAPC2 (GeneID 29882) | SID160724384 | -1.23 | 57.4 | inactive
ANAPC2 (GeneID 29882) | SID160731043 | -1.4 | 54.1 | inactive
ANAPC2 (GeneID 29882) | SID160739222 | -1.27 | 56.6 | inactive
RPL36AL (GeneID 6166) | SID160716101 | 1.02 | 102 | inactive
RPL36AL (GeneID 6166) | SID160716102 | -0.388 | 74.2 | inactive
RPL36AL (GeneID 6166) | SID160724035 | -0.017 | 81.5 | inactive

Next part (10 carried over from the part before).
target | PubChem SID | total luciferase, z-score | total luciferase, % of control | outcome
ABTB1 (GeneID 80325) | SID160750393 | 0.457 | 91 | inactive
IFIT1 (GeneID 3434) | SID160775566 | -1.28 | 56.4 | inactive
IFIT1 (GeneID 3434) | SID160775567 | -0.281 | 76.3 | inactive
IFIT1 (GeneID 3434) | SID160775568 | -0.179 | 78.3 | inactive
ANAPC2 (GeneID 29882) | SID160724384 | -1.23 | 57.4 | inactive
ANAPC2 (GeneID 29882) | SID160731043 | -1.4 | 54.1 | inactive
ANAPC2 (GeneID 29882) | SID160739222 | -1.27 | 56.6 | inactive
RPL36AL (GeneID 6166) | SID160716101 | 1.02 | 102 | inactive
RPL36AL (GeneID 6166) | SID160716102 | -0.388 | 74.2 | inactive
RPL36AL (GeneID 6166) | SID160724035 | -0.017 | 81.5 | inactive
FAM228A (GeneID 653140) | SID160770931 | 0.31 | 88 | inactive
FAM228A (GeneID 653140) | SID160770932 | 0.166 | 85.2 | inactive
FAM228A (GeneID 653140) | SID160770933 | 0.654 | 94.9 | inactive
LCMT1 (GeneID 51451) | SID160731374 | -0.427 | 73.4 | inactive
LCMT1 (GeneID 51451) | SID160740833 | 0.0879 | 83.6 | inactive
LCMT1 (GeneID 51451) | SID160740834 | 0.921 | 100 | inactive
FRK (GeneID 2444) | SID160767314 | -0.594 | 70.1 | inactive
FRK (GeneID 2444) | SID160767325 | -0.0931 | 80 | inactive
FRK (GeneID 2444) | SID160767336 | 0.805 | 97.9 | inactive
ACOT4 (GeneID 122970) | SID160756039 | 0.818 | 98.2 | inactive
ACOT4 (GeneID 122970) | SID160756040 | 0.418 | 90.2 | inactive
ACOT4 (GeneID 122970) | SID160756041 | -0.684 | 68.3 | inactive
C2orf15 (GeneID 150590) | SID160758994 | -0.146 | 79 | inactive
C2orf15 (GeneID 150590) | SID160758995 | -0.414 | 73.7 | inactive
C2orf15 (GeneID 150590) | SID160758996 | 1.29 | 108 | inactive
MINDY4 (GeneID 84182) | SID160751848 | 0.312 | 88.1 | inactive
MINDY4 (GeneID 84182) | SID160751849 | -1.12 | 59.6 | inactive
MINDY4 (GeneID 84182) | SID160751851 | 3.44 | 150 | active
LIPA (GeneID 3988) | SID160776634 | 0.646 | 94.7 | inactive
LIPA (GeneID 3988) | SID160776635 | -0.388 | 74.2 | inactive
LIPA (GeneID 3988) | SID160776636 | 0.31 | 88.1 | inactive
IL13RA2 (GeneID 3598) | SID160775785 | -0.311 | 75.7 | inactive
IL13RA2 (GeneID 3598) | SID160775786 | -0.492 | 72.1 | inactive
IL13RA2 (GeneID 3598) | SID160775787 | -0.19 | 78.1 | inactive
UBE2Q2P1 (GeneID 388165) | SID160765780 | -0.132 | 79.3 | inactive
UBE2Q2P1 (GeneID 388165) | SID160765781 | 0.883 | 99.5 | inactive
UBE2Q2P1 (GeneID 388165) | SID160765782 | -1.61 | 49.8 | inactive
PABIR1 (GeneID 116224) | SID160755368 | 0.0539 | 83 | inactive
PABIR1 (GeneID 116224) | SID160755369 | 2.23 | 126 | inactive
PABIR1 (GeneID 116224) | SID160755370 | 0.111 | 84.1 | inactive
